Experimental data: PMC8885197
No constants are given. Whether binding was seen depends on the method and setting. Binding seen in cells or lysates may run through a third protein. Some binding calls cover weakened binding; strength is not graded here. Tags and fused reporters may be left off the sequences shown.

By UniProt entry, the sequences of proteins in these tests, tags left out.
UniProt O15169: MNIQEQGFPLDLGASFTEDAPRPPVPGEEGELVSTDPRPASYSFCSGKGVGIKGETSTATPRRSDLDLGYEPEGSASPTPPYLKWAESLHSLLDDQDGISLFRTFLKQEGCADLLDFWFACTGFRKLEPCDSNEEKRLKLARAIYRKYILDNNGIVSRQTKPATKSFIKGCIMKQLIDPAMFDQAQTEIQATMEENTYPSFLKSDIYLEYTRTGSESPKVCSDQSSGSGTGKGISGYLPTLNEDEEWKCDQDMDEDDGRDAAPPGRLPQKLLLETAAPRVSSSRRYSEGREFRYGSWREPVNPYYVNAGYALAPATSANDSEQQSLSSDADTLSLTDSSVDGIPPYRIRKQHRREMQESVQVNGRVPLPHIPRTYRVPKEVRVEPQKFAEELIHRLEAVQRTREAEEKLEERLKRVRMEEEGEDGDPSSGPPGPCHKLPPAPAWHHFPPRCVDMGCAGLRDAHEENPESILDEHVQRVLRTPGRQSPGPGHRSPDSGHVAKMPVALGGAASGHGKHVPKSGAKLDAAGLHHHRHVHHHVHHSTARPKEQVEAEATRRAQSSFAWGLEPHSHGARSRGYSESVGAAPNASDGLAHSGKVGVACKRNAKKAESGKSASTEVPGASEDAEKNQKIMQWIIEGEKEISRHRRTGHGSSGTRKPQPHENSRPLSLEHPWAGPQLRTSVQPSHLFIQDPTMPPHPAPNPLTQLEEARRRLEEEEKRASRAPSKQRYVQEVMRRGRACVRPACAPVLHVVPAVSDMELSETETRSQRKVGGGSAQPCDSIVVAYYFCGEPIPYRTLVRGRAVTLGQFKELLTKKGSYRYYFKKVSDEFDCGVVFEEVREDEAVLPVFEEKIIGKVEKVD

Key:
[1] = target: Axin1, HA-tagged (human) (UniProt O15169); assay: co-IP; GC cells cotransfected with plasmids encoding TRIM11 and Axin1 or Axin2 for 36 h; 500-800 ug lysate protein incubated with anti-FLAG, anti-HA or anti-Myc beads at 4°C for 2-4 h; washed with lysis buffer; western blot with anti-FLAG, anti-HA, anti-Myc
[2] = target: Axin2 (human), Q9Y2T1; assay: as above; conditions: remark: other sources report otherwise

Row | binding [1] | binding [2] | Binder
1 | binds |  | Tripartite motif 11 (TRIM11), FLAG-tagged (protein, UniProt Q96F44 1-468) MAAPDLSTNLQEEATCAICLDYFTDPVMTDCGHNFCRECIRRCWGQPEGPYACPECRELSPQRNLRPNRPLAKMAEMARRLHPPSPVPQGVCPAHREPLAAFCGDELRLLCAACERSGEHWAHRVRPLQDAAEDLKAKLEKSLEHLRKQMQDALLFQAQADETCVLWQKMVESQRQNVLGEFERLRRLLAEEEQQLLQRLEEEELEVLPRLREGAAHLGQQSAHLAELIAELEGRCQLPALGLLQDIKDALRRVQDVKLQPPEVVPMELRTVCRVPGLVETLRRFRGDVTLDPDTANPELILSEDRRSVQRGDLRQALPDSPERFDPGPCVLGQERFTSGRHYWEVEVGDRTSWALGVCRENVNRKEKGELSAGNGFWILVFLGSYYNSSERALAPLRDPPRRVGIFLDYEAGHLSFYSATDGSLLFIFPEIPFSGTLRPLFSPLSSSPTPMTICRPKGGSGDTLAPQ
2 |  | no binding | Tripartite motif 11 (TRIM11), FLAG-tagged, Q96F44 1-468 (protein) MAAPDLSTNLQEEATCAICLDYFTDPVMTDCGHNFCRECIRRCWGQPEGPYACPECRELSPQRNLRPNRPLAKMAEMARRLHPPSPVPQGVCPAHREPLAAFCGDELRLLCAACERSGEHWAHRVRPLQDAAEDLKAKLEKSLEHLRKQMQDALLFQAQADETCVLWQKMVESQRQNVLGEFERLRRLLAEEEQQLLQRLEEEELEVLPRLREGAAHLGQQSAHLAELIAELEGRCQLPALGLLQDIKDALRRVQDVKLQPPEVVPMELRTVCRVPGLVETLRRFRGDVTLDPDTANPELILSEDRRSVQRGDLRQALPDSPERFDPGPCVLGQERFTSGRHYWEVEVGDRTSWALGVCRENVNRKEKGELSAGNGFWILVFLGSYYNSSERALAPLRDPPRRVGIFLDYEAGHLSFYSATDGSLLFIFPEIPFSGTLRPLFSPLSSSPTPMTICRPKGGSGDTLAPQ
